## Cleaved PARP in drug-treated melanoma cells

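Human melanoma cell lines in 1,536-well plates were treated with a pair of drugs for 72 h, then fixed, stained and imaged. Values are the share of nuclei positive for cleaved PARP as a percentage of the same share in the DMSO control: 100 is the control level, higher means more apoptosis. Every drug was used at one fixed concentration, the higher of two screened. The file gives one value for each pair and line, without errors, so small differences may be noise. The marker varies much from line to line, for technical or biological reasons.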 Only some of the drugs and lines screened are listed, without regard to their results. An entry leaves out what has no value listed here. A dash means that no value is listed here.

Drugs:
CX-4945, 2000 nM: O=C(O)c1ccc2c(c1)nc(Nc1cccc(Cl)c1)c1ccncc12
enzastaurin, 4000 nM: Cn1cc(C2=C(c3cn(C4CCN(Cc5ccccn5)CC4)c4ccccc34)C(=O)NC2=O)c2ccccc21
TCS401, 8330 nM: O=C(O)C(=O)Nc1sc2c(c1C(=O)O)CCNC2
PF-562271, 400 nM: CN(c1ncccc1CNc1nc(Nc2ccc3c(c2)CC(=O)N3)ncc1C(F)(F)F)S(C)(=O)=O
dovitinib, 500 nM: CN1CCN(c2ccc3nc(-c4c(N)c5c(F)cccc5[nH]c4=O)[nH]c3c2)CC1
temozolomide, 10000 nM: Cn1nnc2c(C(N)=O)ncn2c1=O
tamatinib, 2000 nM: COc1cc(Nc2ncc(F)c(Nc3ccc4c(n3)NC(=O)C(C)(C)O4)n2)cc(OC)c1OC
vorinostat, 400 nM: O=C(CCCCCCC(=O)Nc1ccccc1)NO
T0901317, 7000 nM: O=S(=O)(c1ccccc1)N(CC(F)(F)F)c1ccc(C(O)(C(F)(F)F)C(F)(F)F)cc1
fingolimod, 10000 nM: CCCCCCCCc1ccc(CCC(N)(CO)CO)cc1
fludarabine, 1000 nM: Nc1nc(F)nc2c1ncn2[C@@H]1O[C@H](CO)[C@@H](O)[C@@H]1O
lestaurtinib, 20 nM: C[C@]12O[C@H](C[C@]1(O)CO)n1c3ccccc3c3c4c(c5c6ccccc6n2c5c31)CNC4=O

Pair,SK-MEL-2,SK-MEL-5,LOX IMVI,MZ2-MEL,A2058,COLO 792
T0901317 + lestaurtinib,158,105,219,83.2,105,150
fingolimod + T0901317,16000,165,498,198,2390,485
vorinostat + TCS401,115,170,81.5,269,129,116
fingolimod + dovitinib,1350,192,984,292,1490,11600
PF-562271 + dovitinib,228,473,64.3,712,1530,383
fingolimod + vorinostat,7090,96.3,3530,-,1350,12100
tamatinib + vorinostat,210,370,152,135,138,1460
lestaurtinib + PF-562271,137,282,171,131,211,171
enzastaurin + CX-4945,471,172,64.1,203,394,153
lestaurtinib + dovitinib,376,440,283,233,1150,340
fingolimod + CX-4945,9160,258,342,16400,1410,2550
tamatinib + dovitinib,213,118,129,769,1480,821
CX-4945 + dovitinib,445,358,250,504,605,209
dovitinib + fludarabine,1300,4400,75.3,299,1110,70.3
vorinostat + PF-562271,328,206,67.6,133,185,33.1
PF-562271 + T0901317,177,413,152,112,152,126
temozolomide + fludarabine,2310,3610,54.9,-,340,204
lestaurtinib + fludarabine,924,1290,171,25.7,134,386
enzastaurin + dovitinib,206,175,59.7,181,682,242
T0901317 + temozolomide,32.8,129,77.8,78.3,481,142
dovitinib + TCS401,175,166,271,266,835,147
vorinostat + T0901317,303,217,70.7,56.6,31.0,107
PF-562271 + tamatinib,213,131,337,240,260,713
enzastaurin + lestaurtinib,182,354,206,97.2,184,247
temozolomide + vorinostat,48.9,107,69.5,36.3,649,107
PF-562271 + enzastaurin,134,382,82.1,365,426,76.5
fingolimod + tamatinib,698,79.4,4420,2800,3000,9240
CX-4945 + vorinostat,344,246,194,180,113,271
temozolomide + PF-562271,201,448,79.2,291,243,277
T0901317 + enzastaurin,558,124,137,68.0,194,64.7
tamatinib + TCS401,148,96.6,122,135,174,134
fingolimod + PF-562271,435,611,237,-,1350,469

The first 3 entries again:

{"pair": "T0901317 + lestaurtinib", "SK-MEL-2": 158, "SK-MEL-5": 105, "LOX IMVI": 219, "MZ2-MEL": 83.2, "A2058": 105, "COLO 792": 150}
{"pair": "fingolimod + T0901317", "SK-MEL-2": 16000, "SK-MEL-5": 165, "LOX IMVI": 498, "MZ2-MEL": 198, "A2058": 2390, "COLO 792": 485}
{"pair": "vorinostat + TCS401", "SK-MEL-2": 115, "SK-MEL-5": 170, "LOX IMVI": 81.5, "MZ2-MEL": 269, "A2058": 129, "COLO 792": 116}

Data from the primary screen of doi:10.1371/journal.pone.0140310, rounded.